The other results are listed elsewhere or left out. Baselines shift from plate to plate; read single values as rough.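 Smoothened with circularly permuted GFP in its cytoplasmic tail is carried by a clonal Drosophila S2 line; fluorescence appears when Hh-driven phosphorylation opens an inhibitory loop. Per-cell signal, read by flow cytometry, was scaled to Hh-stimulated untreated cells. Hits were consistent fluorescence-shifting groups of inhibitors sharing pathway targets, not single compounds.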
System: Drosophila S2 cl14 SmoIP sensor cells
Assay: normalized SmoIP GFP fluorescence (untreated unstimulated = 0%, untreated Hh-stimulated = 100%); higher = more Smo activation sensor fluorescence
Conditions: compound concentration: 15 uM, 24 h
[1] = stimulation: Hh conditioned medium (+Hh)
[2] = stimulation: mock conditioned medium (-Hh)

Row | SMILES | normalized SmoIP GFP fluorescence [1] | normalized SmoIP GFP fluorescence [2]
1 | COc1ccccc1N1CCN(CCN(C(=O)C2CCCCC2)c2ccccn2)CC1 | 141% | -5.35%
2 | CCOC(=O)[C@H](CCc1ccccc1)N[C@@H](C)C(=O)N1CCC[C@H]1C(=O)O [Enalapril-maleate(Vasotec)] | 116% | -12.7%
3 | O=C(NCCS(=O)(=O)c1ccc(C(F)(F)F)cn1)c1ccc(Cl)cc1 | 127% | -7.15%
4 | CC(=O)S[C@@H]1CC2=CC(=O)CC[C@]2(C)[C@H]2CC[C@@]3(C)[C@@H](CC[C@@]34CCC(=O)O4)[C@H]12 [spironolactone] | 121% | -0.491%
5 | C[C@H](NC(=O)/C(C#N)=C/c1cccc(Br)n1)c1ccccc1 | 80.7% | 75.5%
6 | COc1cc(OC)c2c(=O)[nH]c(-c3cc(C)c(OCCO)c(C)c3)nc2c1 | 134% | 9.79%
7 | COc1ccc(-c2ccc3c(N4CCOCC4)nc(N4C[C@@H](C)O[C@@H](C)C4)nc3n2)cc1CO | 85.5% | 24.9%
8 | CC(=O)O[C@]1(C(C)=O)CC[C@H]2[C@@H]3C=C(Cl)C4=CC(=O)[C@@H]5C[C@@H]5[C@]4(C)[C@H]3CC[C@@]21C [cyproterone-acetate] | 190% | 31.3%
9 | O=C1NC(=O)/C(=C/c2ccc(-c3ccc(F)cc3O)o2)S1 | 135% | 13.2%
10 | Cc1cc([C@@H](C)Nc2ccccc2C(=O)O)c2nc(N3CCOCC3)cc(=O)n2c1 | 84.6% | 20.4%
11 | Cc1ccccc1C(=O)Nc1ccc(C(=O)N2CCCC(O)c3cc(Cl)ccc32)c(C)c1 (centres undefined) | 134% | -2.82%
12 | CCOc1ccc(NC(C)=O)cc1 [phenacetin] | 135% | -13.7%
